Measured values as given in PubChem BioAssay AID504444 (National Center for Advancing Translational Sciences (NCATS), 2011).
In all, about 360,000 compounds went through this assay and about 7,500 (2.1%) were called active. Inconclusive results, whose numbers are uncertain, are shown with a selection of clear calls. Calls come from the whole dose curve; as a rule, active = well fitted inhibition curve with a large enough effect; inconclusive = small, poorly fitted or top-dose-only effect, or effect the other way; inactive = flat fitted curve, though single readings scatter. Potencies of inconclusive entries are doubtful fits and often do not repeat.
% is set by controls: 0 for no effect and ±100 for the full control effect; potency is the fitted concentration of half-maximal effect.

Experiment: Nrf2 qHTS screen for inhibitors; note: nearly all actives have a fitted effect of over 60% in size
Details: A549 ARE-Fluc reporter, luciferase luminescence, 18-24 h; activity change, negative = inhibition: at 46 µM (top of the series)
Outline: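 Two sequential reads on A549 ARE_Fluc cells exposed to compound for 18-24 h: a CellTiter-Fluor fluorescence read for viability, then a luciferase luminescence read for Nrf2/ARE activity.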
With `Fc1ccc(-c2cnc(-c3cccs3)o2)cc1` the “activity change, negative = inhibition” value was inactive: 28.1%. In the case of `O=C(NCc1ccncc1)c1ccc(Br)cc1`, the “activity change, negative = inhibition” value is reported as inactive: 1.73%. For `COc1ccc2nc3oc(C(=O)N4CC(C)CC(C)C4)cc3cc2c1` (stereo not drawn), the “activity change, negative = inhibition” value was inactive: 7.8%. With `C=CCn1c(=S)[nH]c2sc3c(c2c1=O)CCCC3` the Potency was inconclusive: 20.6 µM [falling, partial curve, poor fit]. With `CCCOc1ccc(CNC(=O)c2oc3ccc4c(c3c2C)C(=O)CC(C)(CC)O4)cc1` (stereo not drawn) the Potency was inconclusive: 25.9 µM [falling, single point]. For `CC(=O)N1CCc2cc(S(=O)(=O)NCc3ccc(C)cc3)ccc21`, the Potency was inconclusive: 14.6 µM [falling, single point]. For `CCOC(=O)c1cc(C)n(-c2c(C)n(C)n(-c3ccccc3)c2=O)c1C`, the Potency was inconclusive: 29.1 µM [activator, single point]. For `S=C(NN=C(c1ccccc1)c1ccccn1)N(Cc1ccccn1)Cc1ccccn1`, the Potency was inconclusive: 3.66 µM [falling, full curve]. With `CCc1cccc(C)c1NC(=O)CO/N=C(\C)c1cc2ccccc2o1` the Potency was inconclusive: 20.6 µM [falling, single point]. With `CN(C)CCNC(=O)c1cccc(NS(=O)(=O)c2ccc(Cl)c(Cl)c2)c1` the Potency was inconclusive: 29.1 µM [falling, single point]. In the case of `Cc1cccc(NC(=O)Cc2c(F)cccc2Cl)n1`, the Potency is reported as inconclusive: 5.8 µM [activator, partial curve]. With `CN(C1CCS(=O)(=O)C1)S(=O)(=O)c1ccc2ccccc2c1` (stereo not drawn) the Potency was inconclusive: 0.58 µM [falling, full curve, poor fit]. For `Brc1ccc(-c2c(-c3ccsc3)sc3ccccc23)cn1`, the Potency was inconclusive: 16.4 µM [activator, partial curve, poor fit]. With `O=C(Nc1ccc(F)cc1)C1CCN(S(=O)(=O)c2cccs2)CC1` the Potency was inconclusive: 8.2 µM [falling, partial curve]. With `COc1ccc(C2c3c(nc(CCCc4ccccc4)[nH]c3=O)Oc3ccc4ccccc4c32)cc1OC` (stereo not drawn) the “activity change, negative = inhibition” value was inactive: -0.54%. For `CC(C)Cn1c(N)c(C(=O)COC(=O)CN2C(=O)C3CC=CCC3C2=O)c(=O)n(C)c1=O` (stereo not drawn), the Potency was active: 4.61 µM. With `COc1ccc(NC(=O)C23CC4CC(CC(Cl)(C4)C2)C3)cc1S(=O)(=O)N1CCOCC1` the “activity change, negative = inhibition” value was inactive: -26.9%. For `Brc1ccccc1-n1nnc(-c2cnc3ccccc3c2)n1`, the Potency was inconclusive: 2.06 µM [activator, full curve]. With `O=C(/C=C/c1ccc(F)cc1)Nc1ccc(S(=O)(=O)N2CCOCC2)cc1` the Potency was inconclusive: 29.1 µM [falling, single point]. In the case of `COc1cccc(CNc2ncnc3onc(C)c23)c1`, the Potency is reported as inconclusive: 20.6 µM [falling, single point]. For `CCOC(=O)C1=C(C)NC(=S)N(C(C)=O)C1c1ccc(Cl)cc1` (stereo not drawn), the Potency was inconclusive: 23.1 µM [falling, single point]. In the case of `O=C(NCc1ccccc1)NCc1cccs1`, the Potency is reported as inconclusive: 20.6 µM [activator, single point]. In the case of `Cc1cc(NC(=O)c2sccc2C)n(-c2cccc(Cl)c2)n1`, the Potency is reported as inconclusive: 20.6 µM [activator, single point]. For `O=C(Cn1c(=O)n(Cc2ccco2)c(=O)c2oc3ccccc3c21)Nc1ccc(F)c(Cl)c1`, the Potency was inconclusive: 32.6 µM [falling, partial curve, poor fit]. In the case of `COc1ccc(N(CC(=O)N2CCc3ccccc3C2)S(=O)(=O)c2ccc(C)cc2)cc1Cl`, the “activity change, negative = inhibition” value is reported as inactive: -9.28%. In the case of `Cc1cc(C)n(CC(O)COCc2ccccc2)n1` (stereo not drawn), the “activity change, negative = inhibition” value is reported as inactive: -2.23%. For `CN1CCN(CCCNC(=O)c2cnn(-c3ccc(F)cc3)c2-n2cccc2)CC1`, the Potency was inconclusive: 2.06 µM [activator, partial curve, poor fit]. With `COc1cc(NC(=O)c2cccs2)ccc1NC(=O)c1ccccc1Cl` the Potency was inconclusive: 29.1 µM [falling, single point]. In the case of `COc1ccc(CCNC(=S)c2ccccc2)cc1OC`, the Potency is reported as inconclusive: 16.4 µM [falling, partial curve, poor fit]. With `c1ccc(-c2cc3ncc4c(n3n2)-c2ccccc2OC4)cc1` the Potency was inconclusive: 3.66 µM [activator, full curve]. In the case of `O=C(Nc1c(C(=O)N2CCN(c3ccccc3F)CC2)oc2ccccc12)c1ccco1`, the Potency is reported as inconclusive: 0.0041 µM [falling, full curve, poor fit]. With `Cc1c(C(=O)OCC(=O)N(C)CC(=O)Nc2ccc(F)cc2)oc2ccccc12` the Potency was inconclusive: 29.1 µM [falling, single point]. For `Brc1ccccc1C1CC(c2ccccc2)=Nc2ccccc2N1` (stereo not drawn), the Potency was inconclusive: 18.4 µM [activator, partial curve, poor fit]. In the case of `COc1ccc2c(Cl)c(-c3nnc(SCC(=O)c4ccccc4)n3C)sc2c1`, the Potency is reported as inconclusive: 23.1 µM [falling, single point]. With `C/C(=N/NC(=O)c1ccc2c(c1)OCCO2)c1ccc([N+](=O)[O-])cc1` the Potency was inconclusive: 0.206 µM [activator, full curve, poor fit]. With `Cc1ccc(NCCC(=O)c2ccccc2)cc1Cl` the Potency was inconclusive: 6.51 µM [activator, partial curve]. In the case of `Cc1oc(-c2ccc3c(c2)OCCO3)cc1C(=O)O`, the Potency is reported as active: 9.2 µM. With `CSc1nc(-c2ccccc2Cl)nc2c1Cc1c(CO)cnc(C)c1O2` the Potency was inconclusive: 9.2 µM [activator, partial curve]. For `Cc1ccccc1N1CCN(Cc2ccc([N+](=O)[O-])o2)CC1`, the “activity change, negative = inhibition” value was inactive: -13.8%. In the case of `COc1ccc(N(CC(O)Cn2c(C)nc3ccccc32)S(=O)(=O)c2ccccc2)cc1` (stereo not drawn), the Potency is reported as inconclusive: 29.1 µM [activator, single point]. In the case of `COc1ccc(CNC(=O)Cn2c(=O)c3cccn3c3ccccc32)cc1`, the Potency is reported as active: 11.6 µM. For `Fc1ccc(C(CCNCc2ccccn2)c2ccc(Cl)cc2)cc1` (stereo not drawn), the “activity change, negative = inhibition” value was inactive: 20.2%. For `Cc1ccc(NS(=O)(=O)c2cccc(C(=O)N/N=C/c3c(C)nn(-c4ccccc4)c3N3CCCC3)c2)c(C)c1`, the Potency was inconclusive: 18.4 µM [falling, single point].
